Data as given in PubChem BioAssay AID1259308 (NCATS, 2017).

- Aim: 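Knock-downs that increase output of a recombinant reporter protein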 (primary screen)
- Cells: human HEK293 embryonic kidney cells stably expressing firefly luciferase (HEK-CMV-Luc2-Hygro)
- Reagent: single siRNA against human genes, 0.8 pmol siRNA per well
- Time to read-out: 72 h
- Measured: 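Reporter luminescence and viable-cell signal on separate replicate plates, given as percent of non-targeting control and median/MAD z-scores, plus per-cell luciferase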
- Reading the numbers: total luciferase, z-score and total luciferase, % of control: higher = more reporter protein produced
- Call rule: 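An siRNA counts as active if its total luciferase robust z-score exceeds 3; genes with two or more such siRNAs out of three were retested with fresh siRNAs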
- Calls: active = raised luciferase; inactive = no rise
Here is an unselected part of about 59,000 deposited reagents. Of all reagents, about 1,510 (2.6%) are marked active. 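Calls use total luciferase alone and ignore viability, so some active siRNAs may act by altering cell number.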 The numbers tell different reagents against one gene apart. Further read-outs or replicates are left out here.

TMEM270 (transmembrane protein 270) #1
- total luciferase, z-score: 0.168
- total luciferase, % of control: 85.2
- Call: inactive

TMEM270 (transmembrane protein 270) #2
- total luciferase, z-score: -0.579
- total luciferase, % of control: 70.4
- Call: inactive

TMEM270 (transmembrane protein 270) #3
- total luciferase, z-score: -0.083
- total luciferase, % of control: 80.2
- Call: inactive

CHEK2 (checkpoint kinase 2) #1
- total luciferase, z-score: 0.841
- total luciferase, % of control: 98.6
- Call: inactive

CHEK2 (checkpoint kinase 2) #2
- total luciferase, z-score: 0.961
- total luciferase, % of control: 101
- Call: inactive

CHEK2 (checkpoint kinase 2) #3
- total luciferase, z-score: 1.51
- total luciferase, % of control: 112
- Call: inactive

GLUD2 (glutamate dehydrogenase 2) #1
- total luciferase, z-score: -0.0239
- total luciferase, % of control: 81.4
- Call: inactive

GLUD2 (glutamate dehydrogenase 2) #2
- total luciferase, z-score: -2.46
- total luciferase, % of control: 33
- Call: inactive

GLUD2 (glutamate dehydrogenase 2) #3
- total luciferase, z-score: 0.0806
- total luciferase, % of control: 83.5
- Call: inactive

LRMDA (leucine rich melanocyte differentiation associated) #1
- total luciferase, z-score: 0.711
- total luciferase, % of control: 96
- Call: inactive

LRMDA (leucine rich melanocyte differentiation associated) #2
- total luciferase, z-score: 0.578
- total luciferase, % of control: 93.4
- Call: inactive

LRMDA (leucine rich melanocyte differentiation associated) #3
- total luciferase, z-score: 0.711
- total luciferase, % of control: 96
- Call: inactive

C1orf167 (chromosome 1 open reading frame 167) #1
- total luciferase, z-score: 1.21
- total luciferase, % of control: 106
- Call: inactive

C1orf167 (chromosome 1 open reading frame 167) #2
- total luciferase, z-score: 2.12
- total luciferase, % of control: 124
- Call: inactive

C1orf167 (chromosome 1 open reading frame 167) #3
- total luciferase, z-score: 0.799
- total luciferase, % of control: 97.8
- Call: inactive

GAD1 (glutamate decarboxylase 1) #1
- total luciferase, z-score: 0.69
- total luciferase, % of control: 95.6
- Call: inactive

GAD1 (glutamate decarboxylase 1) #2
- total luciferase, z-score: -0.126
- total luciferase, % of control: 79.4
- Call: inactive

GAD1 (glutamate decarboxylase 1) #3
- total luciferase, z-score: -0.226
- total luciferase, % of control: 77.4
- Call: inactive

OR11H6 (olfactory receptor family 11 subfamily H member 6) #1
- total luciferase, z-score: 0.798
- total luciferase, % of control: 97.8
- Call: inactive

OR11H6 (olfactory receptor family 11 subfamily H member 6) #2
- total luciferase, z-score: -0.468
- total luciferase, % of control: 72.6
- Call: inactive

OR11H6 (olfactory receptor family 11 subfamily H member 6) #3
- total luciferase, z-score: 0.758
- total luciferase, % of control: 97
- Call: inactive

TFB2M (transcription factor B2, mitochondrial) #1
- total luciferase, z-score: -0.166
- total luciferase, % of control: 78.6
- Call: inactive

TFB2M (transcription factor B2, mitochondrial) #2
- total luciferase, z-score: -0.596
- total luciferase, % of control: 70
- Call: inactive

TFB2M (transcription factor B2, mitochondrial) #3
- total luciferase, z-score: 1.9
- total luciferase, % of control: 120
- Call: inactive

DNAJA3 (DnaJ heat shock protein family (Hsp40) member A3) #1
- total luciferase, z-score: 0.191
- total luciferase, % of control: 85.7
- Call: inactive

DNAJA3 (DnaJ heat shock protein family (Hsp40) member A3) #2
- total luciferase, z-score: 0.734
- total luciferase, % of control: 96.5
- Call: inactive

DNAJA3 (DnaJ heat shock protein family (Hsp40) member A3) #3
- total luciferase, z-score: -1.05
- total luciferase, % of control: 61.1
- Call: inactive

SNX29 (sorting nexin 29) #1
- total luciferase, z-score: -0.751
- total luciferase, % of control: 66.9
- Call: inactive

SNX29 (sorting nexin 29) #2
- total luciferase, z-score: 0.763
- total luciferase, % of control: 97.1
- Call: inactive

SNX29 (sorting nexin 29) #3
- total luciferase, z-score: 0.283
- total luciferase, % of control: 87.5
- Call: inactive

SNX29 (sorting nexin 29) #4
- total luciferase, z-score: -0.497
- total luciferase, % of control: 72
- Call: inactive

SNX29 (sorting nexin 29) #5
- total luciferase, z-score: -1.03
- total luciferase, % of control: 61.4
- Call: inactive

SNX29 (sorting nexin 29) #6
- total luciferase, z-score: 0.012
- total luciferase, % of control: 82.1
- Call: inactive

Reformatted: entries from further up
{"target": "GAD1 (glutamate decarboxylase 1)", "siRNA no.": 2, "total luciferase, z-score": -0.126, "total luciferase, % of control": 79.4, "Call": "inactive"}
{"target": "GAD1 (glutamate decarboxylase 1)", "siRNA no.": 3, "total luciferase, z-score": -0.226, "total luciferase, % of control": 77.4, "Call": "inactive"}
